Experimental data as given in publication doi:10.1101/792705.
These are yes or no findings as the source states them, for the method shown. Binding seen in cells or lysates may run through a third protein. Some entries that bind do so weakly or less than the wild type.

The chains behind the UniProt entries cited, without tags or fusion partners. Residues count along the entry.
UniProt P22366: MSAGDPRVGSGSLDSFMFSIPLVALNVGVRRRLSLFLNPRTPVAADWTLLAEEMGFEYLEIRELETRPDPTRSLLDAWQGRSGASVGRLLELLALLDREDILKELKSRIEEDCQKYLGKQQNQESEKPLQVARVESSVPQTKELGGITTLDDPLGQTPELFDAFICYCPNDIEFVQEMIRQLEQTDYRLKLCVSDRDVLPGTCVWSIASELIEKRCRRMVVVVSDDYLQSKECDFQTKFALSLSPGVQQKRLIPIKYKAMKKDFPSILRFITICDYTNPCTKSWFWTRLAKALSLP
UniProt Q9QUK6, residues 26-835: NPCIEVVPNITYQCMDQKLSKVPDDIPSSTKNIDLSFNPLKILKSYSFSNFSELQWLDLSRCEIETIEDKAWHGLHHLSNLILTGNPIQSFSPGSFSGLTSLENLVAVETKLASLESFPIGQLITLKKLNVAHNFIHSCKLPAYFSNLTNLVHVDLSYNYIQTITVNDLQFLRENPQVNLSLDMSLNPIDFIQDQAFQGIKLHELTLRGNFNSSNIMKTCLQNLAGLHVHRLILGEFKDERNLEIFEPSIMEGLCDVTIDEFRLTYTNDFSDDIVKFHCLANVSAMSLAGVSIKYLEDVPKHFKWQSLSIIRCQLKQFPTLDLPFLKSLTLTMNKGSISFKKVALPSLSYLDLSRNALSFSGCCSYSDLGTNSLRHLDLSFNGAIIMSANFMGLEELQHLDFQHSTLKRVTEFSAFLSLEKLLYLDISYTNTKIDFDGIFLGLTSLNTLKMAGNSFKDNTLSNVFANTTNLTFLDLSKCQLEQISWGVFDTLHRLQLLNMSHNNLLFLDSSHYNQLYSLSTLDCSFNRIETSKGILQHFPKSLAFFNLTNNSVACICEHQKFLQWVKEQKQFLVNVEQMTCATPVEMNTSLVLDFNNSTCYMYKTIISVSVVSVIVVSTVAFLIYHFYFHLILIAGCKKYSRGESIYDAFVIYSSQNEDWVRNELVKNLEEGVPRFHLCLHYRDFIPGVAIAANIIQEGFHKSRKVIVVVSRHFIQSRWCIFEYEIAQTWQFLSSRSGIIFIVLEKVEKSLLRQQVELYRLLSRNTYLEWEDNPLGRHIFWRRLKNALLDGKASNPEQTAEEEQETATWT

Molecular target: MyD88 (mouse (endogenous in BMDM)) (UniProt P22366)
Assay: co-IP

binding: binds
Substance: TLR4 (from UniProt Q9QUK6 26-835) (receptor)
